Reference: ChEMBL document CHEMBL4828736, “Discovery of ASTX029, A Clinical Candidate Which Modulates the Phosphorylation and Catalytic Activity of ERK1/2” (J Med Chem, 2021)

Chains of the proteins cited; added tags and fusions are not shown.
UniProt P08684, whole entry: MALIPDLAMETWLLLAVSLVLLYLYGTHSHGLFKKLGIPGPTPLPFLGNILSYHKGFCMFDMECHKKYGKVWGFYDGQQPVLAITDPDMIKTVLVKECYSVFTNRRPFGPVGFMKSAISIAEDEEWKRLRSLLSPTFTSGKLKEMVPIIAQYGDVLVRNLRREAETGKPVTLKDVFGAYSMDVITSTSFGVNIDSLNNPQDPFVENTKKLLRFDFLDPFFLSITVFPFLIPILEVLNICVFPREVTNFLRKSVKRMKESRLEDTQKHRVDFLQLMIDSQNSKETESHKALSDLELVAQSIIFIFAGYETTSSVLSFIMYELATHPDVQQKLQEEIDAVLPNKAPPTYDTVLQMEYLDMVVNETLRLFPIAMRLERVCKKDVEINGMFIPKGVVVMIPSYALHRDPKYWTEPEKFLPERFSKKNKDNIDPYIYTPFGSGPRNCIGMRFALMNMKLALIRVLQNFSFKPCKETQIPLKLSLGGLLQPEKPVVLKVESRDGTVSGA

Columns and labels:
in vitro [1] = conditions: CD1, mouse, microsomes
in vitro [2] = conditions: human, microsomes
CYP3A4 = CYP3A4 (Homo sapiens, UniProt P08684); test: in vitro; conditions: recombinant enzyme

half-life at 40 min, 1 µM (in vitro [1]): 32 min
half-life at 40 min, 1 µM (in vitro [2]): 25 min
half-life at 40 min, 1 µM (CYP3A4): < 5 min
Compound: COc1cc(F)cc([C@H](NC(=O)CN2Cc3ccc(-c4nc(NC5CCOCC5)ncc4Cl)cc3C2=O)[C@@H](C)O)c1
